Among the data in PubChem BioAssay AID330 (DTP/NCI, 2004) are T/C values, retold here.

The structures appear in SMILES notation. The list does not hold the whole screen: it covers a few groups of compounds. Not every dose and run of a compound is shown. T/C is the treated group as % of the vehicle group. For survival time, this PubChem deposit counts one and a half times the control or more as active, and values a quarter to a half above the control carry no call in these data; other NCI protocols may use other cut-offs. Schedules are NCI's codes, read here as Q, the interval in days (D) or hours (H), X, the number of doses. Some T/C values are marked as having no survivor count here; that says nothing about deaths at the dose. Some doses were run more than once; their values stand side by side, smallest first.

For this test, the system named is P388 leukemia ip, CD2F1 mice, survival T/C. Briefly: NCI In Vivo Anticancer Drug Screen. Data for tumor model P388 Leukemia (intraperitoneal) in CD2F1 (CDF1) mice. The note with it: T/C endpoint: median survival time, schedule: Q01DX009 (ip), higher T/C = longer survival.
[1] abbreviates: dose: 2.5 mg/kg/injection, vehicle: saline + alcohol.
[2] abbreviates: dose: 0.31 mg/kg/injection, vehicle: saline + alcohol.
Where [3] appears, read: dose: 0.62 mg/kg/injection, vehicle: saline + alcohol.
Setting [4] is: dose: 1.25 mg/kg/injection, vehicle: saline + alcohol.

Consider `CC1=C[C@H]2O[C@@H]3[C@H](O)[C@@H](O)[C@](C)(C2(COC(=O)CCl)CC1)[C@@]31CO1` (stereo partly specified), for which the T/C is, setting by setting: (dose: 0.5 mg/kg/injection, vehicle: saline + alcohol) 137 % of control [survivor count not shown]; (dose: 0.5 mg/kg/injection, vehicle: saline with Tween-80) 145 [survivor count not shown] and 155 % of control [survivor count not shown]; (dose: 1.0 mg/kg/injection, vehicle: saline + alcohol) 151 % of control [survivor count not shown]; (dose: 1.0 mg/kg/injection, vehicle: saline with Tween-80) 136 [survivor count not shown] and 155 % of control [survivor count not shown]; (dose: 2.0 mg/kg/injection, vehicle: saline + alcohol) 146 % of control [survivor count not shown]; (dose: 2.0 mg/kg/injection, vehicle: saline with Tween-80) 164 % of control [survivor count not shown]. The T/C was 164 % of control [survivor count not shown] (dose: 4.0 mg/kg/injection, vehicle: saline + alcohol); 153 % of control [survivor count not shown] (dose: 4.0 mg/kg/injection, vehicle: saline with Tween-80); 198 % of control [survivor count not shown] (dose: 8.0 mg/kg/injection, vehicle: saline + alcohol).
On to `CC(O)C1/C=C/C=C/C(=O)OC2CC3OC4C5OC5(CO)CCC4(COC(=O)C(O)C(C)CCO1)C2(C)C31CO1` (stereo unspecified), for which the T/C by setting is: (dose: 0.38 mg/kg/injection, vehicle: saline + alcohol, evaluated on day 30) 139 % of control [survivor count not shown]; (dose: 0.38 mg/kg/injection, vehicle: saline + alcohol, evaluated on day 35) 177 % of control [survivor count not shown]; (dose: 0.75 mg/kg/injection, vehicle: saline + alcohol, evaluated on day 30) 148 % of control [survivor count not shown]; (dose: 0.75 mg/kg/injection, vehicle: saline + alcohol, evaluated on day 35) 186 % of control [survivor count not shown]; (dose: 1.5 mg/kg/injection, vehicle: saline + alcohol, evaluated on day 30) 153 % of control [survivor count not shown]; (dose: 1.5 mg/kg/injection, vehicle: saline + alcohol, evaluated on day 35) 192 % of control [survivor count not shown]. The T/C was 166 % of control [survivor count not shown] (dose: 3.0 mg/kg/injection, vehicle: saline + alcohol, evaluated on day 30); 266 % of control [survivor count not shown] (dose: 3.0 mg/kg/injection, vehicle: saline + alcohol, evaluated on day 35); 189 % of control [survivor count not shown] (dose: 6.0 mg/kg/injection, vehicle: saline + alcohol, evaluated on day 30); 321 % of control [survivor count not shown] (dose: 6.0 mg/kg/injection, vehicle: saline + alcohol, evaluated on day 35); 184 % of control [survivor count not shown] (dose: 12.0 mg/kg/injection, vehicle: saline + alcohol, evaluated on day 30); 110 % of control [survivor count not shown] (dose: 12.0 mg/kg/injection, vehicle: saline + alcohol, evaluated on day 35).
Take `CC1=C[C@H]2O[C@@H]3C[C@H]4OC(=O)/C=C\C=C\[C@H]([C@@H](C)O)OC[C@H](O)[C@@]5(C)O[C@@H]5C(=O)OC[C@@]2(C[C@H]1O)[C@]4(C)C31CO1` (stereo partly specified): the T/C (dose: 0.31 mg/kg/injection, vehicle: Klucel (hydroxypropylcellulose) (HPC)) was 118 % of control [survivor count not shown]; the T/C (dose: 0.63 mg/kg/injection, vehicle: Klucel (hydroxypropylcellulose) (HPC)) was 117 % of control [survivor count not shown]; the T/C (dose: 1.25 mg/kg/injection, vehicle: Klucel (hydroxypropylcellulose) (HPC)) is 137 % of control [survivor count not shown]; the T/C (dose: 2.5 mg/kg/injection, vehicle: Klucel (hydroxypropylcellulose) (HPC)) was 102 % of control [survivor count not shown]; the T/C under setting [1] is 185 % of control [survivor count not shown].
For `CC1=CC2OC3CC4OC(=O)/C=C/C=C/C(=O)OCC/C(C)=C/C(=O)OCC2(CC1O)C4(C)C31CO1` (stereo unspecified), the T/C (dose: 0.15 mg/kg/injection, vehicle: saline + alcohol) was 127 [survivor count not shown] and 133 % of control [survivor count not shown]; the T/C under setting [2] was 144 [survivor count not shown] and 150 % of control [survivor count not shown]; the T/C under setting [3] is 153 [survivor count not shown] and 169 % of control [survivor count not shown]; the T/C under setting [4] was 153 [survivor count not shown] and 181 % of control [survivor count not shown]; the T/C under setting [1] was 166 % of control [survivor count not shown].
`CC1CCOC(=O)/C=C/C=C/C(=O)OC2CC3OC4C5OC5(C)CCC4(COC(=O)C1O)C2(C)C31CO1` (stereo unspecified): the T/C is, setting by setting: under setting [2], 96 % of control [survivor count not shown]; under setting [3], 110 % of control [survivor count not shown]; under setting [4], 108 % of control [survivor count not shown]; under setting [1], 118 % of control [survivor count not shown]; (dose: 5.0 mg/kg/injection, vehicle: saline + alcohol) 115 % of control [survivor count not shown].
